Consider two substances from article PMC7893936.

The chains behind the UniProt entries cited, without tags or fusion partners.
UniProt P78362: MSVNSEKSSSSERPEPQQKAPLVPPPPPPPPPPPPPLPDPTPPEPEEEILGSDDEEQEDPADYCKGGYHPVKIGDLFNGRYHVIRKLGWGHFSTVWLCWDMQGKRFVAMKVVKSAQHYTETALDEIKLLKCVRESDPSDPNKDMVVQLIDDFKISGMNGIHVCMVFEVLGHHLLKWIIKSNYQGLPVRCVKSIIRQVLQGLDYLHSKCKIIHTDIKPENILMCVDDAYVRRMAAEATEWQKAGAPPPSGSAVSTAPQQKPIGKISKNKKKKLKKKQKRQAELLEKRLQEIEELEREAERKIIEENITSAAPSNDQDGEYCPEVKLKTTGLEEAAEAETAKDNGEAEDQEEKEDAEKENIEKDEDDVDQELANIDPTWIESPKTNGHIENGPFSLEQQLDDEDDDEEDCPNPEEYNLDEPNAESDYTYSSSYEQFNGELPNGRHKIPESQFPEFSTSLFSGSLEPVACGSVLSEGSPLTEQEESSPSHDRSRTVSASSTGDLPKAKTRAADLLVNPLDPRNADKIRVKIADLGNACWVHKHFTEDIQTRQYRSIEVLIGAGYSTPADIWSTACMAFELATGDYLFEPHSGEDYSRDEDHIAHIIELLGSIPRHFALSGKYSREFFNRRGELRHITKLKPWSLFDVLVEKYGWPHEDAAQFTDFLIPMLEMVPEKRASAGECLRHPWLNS
UniProt Q07955: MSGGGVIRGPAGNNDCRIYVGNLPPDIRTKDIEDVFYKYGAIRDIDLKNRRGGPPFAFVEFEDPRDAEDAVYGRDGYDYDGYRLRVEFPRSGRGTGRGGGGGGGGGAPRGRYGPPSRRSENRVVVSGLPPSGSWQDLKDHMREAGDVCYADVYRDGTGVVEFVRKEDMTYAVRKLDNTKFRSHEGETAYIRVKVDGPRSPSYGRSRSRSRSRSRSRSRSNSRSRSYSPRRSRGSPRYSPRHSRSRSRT

One test addresses GST-tagged SRPK2 (UniProt P78362). The test can be described thus: pull-down; purified GST-SRPK1 or GST-SRPK2 incubated with purified SRSF1 in vitro, GST agarose beads; GST protein as negative control; both purified.
For test [1], the target named is HA-tagged SRPK2 (pcDNA-SRPK2) (UniProt P78362). The test can be described thus: co-IP; lysates (RIPA buffer) of transfected SW480 cells incubated with HA agarose beads overnight at 4 °C, washed with RIPA buffer, western blotting. For orientation: In western blotting, separated proteins are transferred to a membrane and probed.

These are yes or no findings as the source states them, for the method shown. For some assays here: Binding seen in cells or lysates may run through a third protein. Some binding calls cover weakened binding; strength is not graded here.

His-SRSF1 (from UniProt Q07955 1-248): the binding result with GST-tagged SRPK2 was “binds”.

As to “SRSF1 (serine/arginine-rich splicing factor 1) in SW480 cells (from UniProt Q07955 1-248)”, the binding result in test [1] is recorded as “binds”.
